The supplement of paper PMC10849652
The list shows a part of the results.

Protein sequences, listed by entry. Tags and fused reporters are not part of them. Lines headed by an entry give the natural chain unless they say otherwise; changes in a name come on top.
UniProt Q8WUY1: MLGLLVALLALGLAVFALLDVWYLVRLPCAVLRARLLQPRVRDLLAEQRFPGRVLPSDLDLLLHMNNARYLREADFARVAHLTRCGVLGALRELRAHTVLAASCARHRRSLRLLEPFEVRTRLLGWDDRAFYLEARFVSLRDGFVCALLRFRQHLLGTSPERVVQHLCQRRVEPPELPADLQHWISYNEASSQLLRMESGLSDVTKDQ
UniProt Q9BVC6: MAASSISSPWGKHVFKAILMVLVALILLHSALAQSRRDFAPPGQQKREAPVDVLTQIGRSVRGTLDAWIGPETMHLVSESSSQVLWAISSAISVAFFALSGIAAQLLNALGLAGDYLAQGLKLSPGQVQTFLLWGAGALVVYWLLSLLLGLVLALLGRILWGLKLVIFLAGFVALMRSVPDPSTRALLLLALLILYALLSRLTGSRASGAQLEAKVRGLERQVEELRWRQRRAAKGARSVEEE
UniProt Q92544: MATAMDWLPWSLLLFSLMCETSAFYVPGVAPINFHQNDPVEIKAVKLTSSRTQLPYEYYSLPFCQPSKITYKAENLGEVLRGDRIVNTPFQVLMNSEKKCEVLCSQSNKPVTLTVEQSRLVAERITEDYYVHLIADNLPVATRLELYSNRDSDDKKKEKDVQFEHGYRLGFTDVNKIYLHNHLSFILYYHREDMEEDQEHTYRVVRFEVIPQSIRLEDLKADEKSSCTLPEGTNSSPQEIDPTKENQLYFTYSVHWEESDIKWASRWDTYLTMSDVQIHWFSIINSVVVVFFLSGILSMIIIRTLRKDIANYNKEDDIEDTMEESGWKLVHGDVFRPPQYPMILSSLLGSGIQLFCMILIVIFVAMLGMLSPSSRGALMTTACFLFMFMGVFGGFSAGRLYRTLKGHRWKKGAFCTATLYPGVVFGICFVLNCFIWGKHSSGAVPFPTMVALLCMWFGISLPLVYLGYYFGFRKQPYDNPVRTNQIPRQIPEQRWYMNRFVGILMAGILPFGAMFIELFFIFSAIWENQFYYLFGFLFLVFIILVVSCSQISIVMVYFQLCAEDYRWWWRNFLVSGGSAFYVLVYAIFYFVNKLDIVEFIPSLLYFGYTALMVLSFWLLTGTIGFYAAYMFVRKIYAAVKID
UniProt Q8IUX1: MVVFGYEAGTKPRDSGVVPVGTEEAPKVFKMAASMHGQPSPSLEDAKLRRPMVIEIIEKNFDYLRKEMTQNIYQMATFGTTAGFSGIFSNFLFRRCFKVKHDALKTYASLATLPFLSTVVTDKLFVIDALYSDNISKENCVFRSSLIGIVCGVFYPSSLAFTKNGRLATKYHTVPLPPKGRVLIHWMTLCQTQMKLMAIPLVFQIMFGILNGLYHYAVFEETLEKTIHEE
UniProt P52888, whole entry, looked up: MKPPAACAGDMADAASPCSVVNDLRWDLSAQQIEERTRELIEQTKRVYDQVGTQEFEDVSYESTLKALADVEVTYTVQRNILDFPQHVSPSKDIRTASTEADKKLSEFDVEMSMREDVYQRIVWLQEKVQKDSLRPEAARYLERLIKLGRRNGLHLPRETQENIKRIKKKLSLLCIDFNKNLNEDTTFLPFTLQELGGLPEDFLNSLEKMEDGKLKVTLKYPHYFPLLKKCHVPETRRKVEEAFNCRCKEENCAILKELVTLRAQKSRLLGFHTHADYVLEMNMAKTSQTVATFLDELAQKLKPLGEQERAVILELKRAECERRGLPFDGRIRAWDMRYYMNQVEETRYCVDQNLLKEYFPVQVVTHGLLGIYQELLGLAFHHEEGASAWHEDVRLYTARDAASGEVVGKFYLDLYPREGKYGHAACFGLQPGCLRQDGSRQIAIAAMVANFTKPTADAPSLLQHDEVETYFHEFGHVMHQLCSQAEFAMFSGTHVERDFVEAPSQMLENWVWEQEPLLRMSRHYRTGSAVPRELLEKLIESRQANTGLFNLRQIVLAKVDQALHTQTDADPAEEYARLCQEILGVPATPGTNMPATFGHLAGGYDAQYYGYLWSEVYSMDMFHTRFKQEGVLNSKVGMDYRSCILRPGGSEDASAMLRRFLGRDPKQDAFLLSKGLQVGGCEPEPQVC
UniProt Q5JTD0: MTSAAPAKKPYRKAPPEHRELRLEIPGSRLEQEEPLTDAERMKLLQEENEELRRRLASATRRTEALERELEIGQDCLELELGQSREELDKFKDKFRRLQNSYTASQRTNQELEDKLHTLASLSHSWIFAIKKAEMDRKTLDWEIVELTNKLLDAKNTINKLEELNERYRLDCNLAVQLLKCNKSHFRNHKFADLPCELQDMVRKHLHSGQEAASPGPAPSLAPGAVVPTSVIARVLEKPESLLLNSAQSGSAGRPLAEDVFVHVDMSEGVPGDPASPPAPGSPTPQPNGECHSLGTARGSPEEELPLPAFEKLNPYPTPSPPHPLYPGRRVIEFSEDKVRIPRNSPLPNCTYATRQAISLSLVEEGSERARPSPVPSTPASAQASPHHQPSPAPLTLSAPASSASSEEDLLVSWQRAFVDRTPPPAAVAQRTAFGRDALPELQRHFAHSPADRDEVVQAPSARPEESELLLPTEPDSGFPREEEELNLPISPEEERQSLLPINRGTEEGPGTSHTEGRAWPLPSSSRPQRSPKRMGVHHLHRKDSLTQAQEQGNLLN
UniProt Q96MV1: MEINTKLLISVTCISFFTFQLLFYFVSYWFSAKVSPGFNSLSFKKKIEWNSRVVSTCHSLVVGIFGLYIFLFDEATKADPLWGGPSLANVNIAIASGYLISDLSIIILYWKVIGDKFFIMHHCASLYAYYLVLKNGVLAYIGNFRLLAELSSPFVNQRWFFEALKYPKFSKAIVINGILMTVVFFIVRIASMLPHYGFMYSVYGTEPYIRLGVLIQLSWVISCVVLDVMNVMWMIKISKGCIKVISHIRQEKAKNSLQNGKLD
UniProt Q9Y5J9: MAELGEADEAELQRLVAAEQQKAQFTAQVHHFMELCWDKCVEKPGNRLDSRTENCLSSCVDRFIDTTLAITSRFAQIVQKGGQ
UniProt Q04727: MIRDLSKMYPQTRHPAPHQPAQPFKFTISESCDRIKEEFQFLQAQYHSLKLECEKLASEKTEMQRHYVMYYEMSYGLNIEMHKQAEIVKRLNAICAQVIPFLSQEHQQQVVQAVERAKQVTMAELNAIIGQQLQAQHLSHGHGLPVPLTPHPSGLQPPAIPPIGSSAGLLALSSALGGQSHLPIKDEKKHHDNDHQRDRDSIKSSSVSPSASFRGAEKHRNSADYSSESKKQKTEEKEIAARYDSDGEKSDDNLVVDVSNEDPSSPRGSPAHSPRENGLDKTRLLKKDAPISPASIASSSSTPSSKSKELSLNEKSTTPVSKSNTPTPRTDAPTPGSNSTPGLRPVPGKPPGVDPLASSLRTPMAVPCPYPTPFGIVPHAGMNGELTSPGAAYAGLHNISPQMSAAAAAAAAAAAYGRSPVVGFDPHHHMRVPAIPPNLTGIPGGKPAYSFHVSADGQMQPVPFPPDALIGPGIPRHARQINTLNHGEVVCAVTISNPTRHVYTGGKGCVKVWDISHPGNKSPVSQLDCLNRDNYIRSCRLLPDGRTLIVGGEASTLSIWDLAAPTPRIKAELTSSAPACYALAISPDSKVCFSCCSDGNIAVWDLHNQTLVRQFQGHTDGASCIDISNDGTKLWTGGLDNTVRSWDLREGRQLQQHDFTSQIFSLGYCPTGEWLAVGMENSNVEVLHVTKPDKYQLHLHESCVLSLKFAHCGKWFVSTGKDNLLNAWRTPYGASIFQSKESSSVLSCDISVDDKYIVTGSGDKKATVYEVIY
UniProt Q96J01: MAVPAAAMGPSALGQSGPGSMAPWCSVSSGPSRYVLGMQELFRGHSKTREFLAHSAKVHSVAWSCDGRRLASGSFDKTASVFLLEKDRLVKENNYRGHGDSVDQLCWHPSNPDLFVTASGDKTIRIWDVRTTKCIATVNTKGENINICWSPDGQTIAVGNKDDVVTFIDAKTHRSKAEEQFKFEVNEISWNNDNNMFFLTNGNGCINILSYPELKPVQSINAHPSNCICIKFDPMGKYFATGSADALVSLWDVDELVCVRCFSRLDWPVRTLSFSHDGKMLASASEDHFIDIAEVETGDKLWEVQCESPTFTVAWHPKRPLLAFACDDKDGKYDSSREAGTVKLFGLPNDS
UniProt Q03167: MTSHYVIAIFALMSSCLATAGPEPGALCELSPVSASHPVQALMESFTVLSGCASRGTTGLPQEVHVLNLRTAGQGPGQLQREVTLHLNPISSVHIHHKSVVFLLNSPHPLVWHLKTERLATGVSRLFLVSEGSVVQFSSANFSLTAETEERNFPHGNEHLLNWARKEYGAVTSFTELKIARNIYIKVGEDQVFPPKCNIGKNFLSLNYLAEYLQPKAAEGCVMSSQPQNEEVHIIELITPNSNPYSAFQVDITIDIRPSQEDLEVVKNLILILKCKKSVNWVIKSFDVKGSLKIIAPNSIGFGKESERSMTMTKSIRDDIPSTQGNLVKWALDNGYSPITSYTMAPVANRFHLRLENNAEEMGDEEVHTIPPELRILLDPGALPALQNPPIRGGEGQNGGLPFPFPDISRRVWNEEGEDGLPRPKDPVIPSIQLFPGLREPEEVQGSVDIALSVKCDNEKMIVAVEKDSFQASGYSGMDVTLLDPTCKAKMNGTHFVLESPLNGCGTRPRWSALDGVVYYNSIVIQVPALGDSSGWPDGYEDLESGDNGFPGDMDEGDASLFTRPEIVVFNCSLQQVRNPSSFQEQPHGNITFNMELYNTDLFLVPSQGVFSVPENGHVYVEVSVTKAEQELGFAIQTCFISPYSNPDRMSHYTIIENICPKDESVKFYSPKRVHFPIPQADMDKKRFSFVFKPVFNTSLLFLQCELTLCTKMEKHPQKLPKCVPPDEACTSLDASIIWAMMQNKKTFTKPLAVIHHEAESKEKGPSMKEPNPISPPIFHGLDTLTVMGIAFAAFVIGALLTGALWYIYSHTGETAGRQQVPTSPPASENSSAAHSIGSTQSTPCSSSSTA
UniProt Q9Y3A6: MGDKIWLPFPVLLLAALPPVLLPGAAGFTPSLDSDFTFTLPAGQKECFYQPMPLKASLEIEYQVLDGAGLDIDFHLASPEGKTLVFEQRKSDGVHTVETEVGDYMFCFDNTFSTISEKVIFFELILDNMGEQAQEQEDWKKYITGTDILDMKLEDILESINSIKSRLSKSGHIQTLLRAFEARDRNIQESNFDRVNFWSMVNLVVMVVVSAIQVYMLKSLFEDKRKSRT
UniProt Q96B77: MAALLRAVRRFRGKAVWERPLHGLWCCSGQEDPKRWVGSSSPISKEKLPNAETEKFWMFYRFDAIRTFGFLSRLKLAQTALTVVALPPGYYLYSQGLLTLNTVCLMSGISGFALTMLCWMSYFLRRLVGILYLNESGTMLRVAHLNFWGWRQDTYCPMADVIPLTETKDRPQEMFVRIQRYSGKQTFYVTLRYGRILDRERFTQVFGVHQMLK
UniProt Q86UB9: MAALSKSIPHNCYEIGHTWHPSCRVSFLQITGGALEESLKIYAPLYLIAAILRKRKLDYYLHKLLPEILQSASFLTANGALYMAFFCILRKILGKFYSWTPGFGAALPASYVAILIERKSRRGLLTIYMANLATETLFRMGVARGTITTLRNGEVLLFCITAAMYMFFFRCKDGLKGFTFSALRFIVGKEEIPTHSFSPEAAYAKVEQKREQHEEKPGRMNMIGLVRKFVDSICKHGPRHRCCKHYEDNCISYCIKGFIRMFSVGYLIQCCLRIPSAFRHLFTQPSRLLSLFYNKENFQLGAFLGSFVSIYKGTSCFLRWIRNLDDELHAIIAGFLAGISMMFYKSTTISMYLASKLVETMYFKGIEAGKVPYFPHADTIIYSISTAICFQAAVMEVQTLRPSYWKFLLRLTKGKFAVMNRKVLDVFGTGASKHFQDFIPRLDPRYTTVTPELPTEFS
UniProt Q96CP7: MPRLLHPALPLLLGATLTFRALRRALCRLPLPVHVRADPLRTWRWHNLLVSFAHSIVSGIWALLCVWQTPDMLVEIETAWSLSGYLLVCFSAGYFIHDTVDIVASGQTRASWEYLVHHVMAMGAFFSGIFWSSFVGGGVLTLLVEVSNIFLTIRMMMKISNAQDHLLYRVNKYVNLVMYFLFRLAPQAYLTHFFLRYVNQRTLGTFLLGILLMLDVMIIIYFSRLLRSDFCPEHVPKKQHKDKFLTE

Key:
Test in all cases: log2 fold change, soluble protein after heating vs DMSO (PISA); higher = thermal stabilisation; K562 lysate, 10 uM; active = over 0.2 and 3.5 SD of the protein, either way, in both replicates (recomputed)
vemurafenib = compound: CCCS(=O)(=O)Nc1ccc(F)c(C(=O)c2c[nH]c3ncc(-c4ccc(Cl)cc4)cc23)c1F [vemurafenib]
Method in brief: (§1)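 The values are log-two fold changes in thermal stability compared with solvent controls and come from duplicates. They were obtained by TMTpro 16plex LC-MS/MS, with channel sums equalised, on the supernatant after 21,000xg for 90 min. That supernatant came from crude K562 extract at 1 mg/mL protein treated with 10 μM compound for 30 min, heated for 3 min across 48°C-58°C, pooled and brought to 0.5% NP-40 at 4°C.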

[1] = compound: CCCS(=O)(=O)Nc1ccc(F)c(C(=O)c2c[nH]c3ncc(Cl)cc23)c1F
Method in brief: as §1

barasertib = compound: CCN(CCCOc1ccc2c(Nc3cc(CC(=O)Nc4cccc(F)c4)[nH]n3)ncnc2c1)CCOP(=O)(O)O [barasertib]
Method in brief: as §1

[2] = compound: CC[C@@H]1C(=O)N(C)c2cnc(Nc3ccc(C(=O)NC4CCN(C)CC4)cc3OC)nc2N1C1CCCC1
Method in brief: as §1

volasertib = compound: CC[C@@H]1C(=O)N(C)c2cnc(Nc3ccc(C(=O)N[C@H]4CC[C@H](N5CCN(CC6CC6)CC5)CC4)cc3OC)nc2N1C(C)C [volasertib]
Method in brief: as §1

[3] = compound: CCn1c(C(=O)N(C2CC2)C2CC2)cc2c3c(ncn3C)c(Nc3cc(C)n(C)n3)nc21
Method in brief: as §1

[4] = compound: CCn1cc(-c2ccnc3[nH]c(-c4cccc(CN(C)C)c4)cc23)c(-c2ccc(NC(=O)N(C)C)cc2)n1
Method in brief: as §1

[5] = compound: CN1CCC(CNc2ccc3ncc(-c4cccc(OC(F)(F)F)c4)n3n2)CC1
Method in brief: as §1

saracatinib = compound: CN1CCN(CCOc2cc(OC3CCOCC3)c3c(Nc4c(Cl)ccc5c4OCO5)ncnc3c2)CC1 [saracatinib]
Method in brief: as §1

sotrastaurin = compound: CN1CCN(c2nc(C3=C(c4c[nH]c5ccccc45)C(=O)NC3=O)c3ccccc3n2)CC1 [sotrastaurin]
Method in brief: as §1

alvocidib = compound: CN1CC[C@H](c2c(O)cc(O)c3c(=O)cc(-c4ccccc4Cl)oc23)[C@H](O)C1 [alvocidib]
Method in brief: as §1

Tubastatin A = compound: CN1CCc2c(c3ccccc3n2Cc2ccc(C(=O)NO)cc2)C1 [Tubastatin A]
Method in brief: as §1

[6] = compound: CNC(=O)C1=CC=CC=C1NC2=NC(=NC=C2Cl)NC3=C(C=C(C=C3)N4CCOCC4)OC
Method in brief: as §1

defactinib = compound: CNC(=O)c1ccc(Nc2ncc(C(F)(F)F)c(NCc3nccnc3N(C)S(C)(=O)=O)n2)cc1 [defactinib]
Method in brief: as §1

[7] = compound: CNc1nc(-c2ccc3c(N)n[nH]c3c2)cc(N2C[C@@H](C(=O)NC3CCCCC3)CC[C@H]2C)n1
Method in brief: as §1

encorafenib = compound: COC(=O)N[C@@H](C)CNc1nccc(-c2cn(C(C)C)nc2-c2cc(Cl)cc(NS(C)(=O)=O)c2F)n1 [encorafenib]
Method in brief: as §1

[8] = compound: COC(=O)[C@H](CCSC)NC(=O)C1=C(C=C(C=C1)NC[C@H](CS)N)C2=CC=CC=C2
Method in brief: as §1

alisertib = compound: COc1cc(Nc2ncc3c(n2)-c2ccc(Cl)cc2C(c2c(F)cccc2OC)=NC3)ccc1C(=O)O [alisertib]
Method in brief: as §1

[9] = compound: COc1cc2nc(-c3cc(F)ccc3O)nc(N[C@@H]3CNC[C@H]3C(C)(C)O)c2cc1OC
Method in brief: as §1

gefitinib = compound: COc1cc2ncnc(Nc3ccc(F)c(Cl)c3)c2cc1OCCCN1CCOCC1 [gefitinib]
Method in brief: as §1

Measured: log2 fold change

THEM6 (UniProt Q8WUY1)
inactive: vemurafenib 0.03 | [1] 0.007 | barasertib -0.017 | [2] -0.038 | volasertib -0.019 | [3] 0.015 | [4] 0.022 | [5] 0.038 | saracatinib -0.049 | sotrastaurin -0.044 | alvocidib -0.019 | Tubastatin A 0.009 | [6] -0.032 | defactinib 0.066 | [7] 0.05 | encorafenib 0.051 | [8] -0.002 | alisertib 0.037 | [9] 0 | gefitinib -0.048

TMEM109 (UniProt Q9BVC6)
inactive: vemurafenib -0.043 | [1] -0.009 | barasertib -0.006 | [2] 0.091 | volasertib 0.044 | [3] -0.027 | [4] 0.059 | [5] 0.032 | saracatinib 0.012 | sotrastaurin -0.039 | alvocidib 0.011 | Tubastatin A 0.054 | [6] 0.002 | defactinib 0.013 | [7] 0.067 | encorafenib 0.032 | [8] -0.083 | alisertib -0.011 | [9] 0.027 | gefitinib 0.017

TM9SF4 (UniProt Q92544)
inactive: vemurafenib 0.063 | [1] -0.007 | barasertib 0.002 | [2] -0.003 | volasertib -0.014 | [3] 0.03 | [4] -0.175 | [5] 0.035 | saracatinib -0.006 | sotrastaurin 0.008 | alvocidib -0.021 | Tubastatin A 0.025 | [6] -0.016 | defactinib 0.025 | [7] -0.008 | encorafenib 0.104 | [8] -0.065 | alisertib 0.019 | [9] -0.004 | gefitinib -0.023

TMEM126B (UniProt Q8IUX1)
inactive: vemurafenib -0.009 | [1] 0.061 | barasertib 0.047 | [2] -0.003 | volasertib 0.003 | [3] 0.006 | [4] -0.067 | [5] 0 | saracatinib -0.041 | sotrastaurin 0.045 | alvocidib -0.035 | Tubastatin A 0.061 | [6] 0 | defactinib -0.045 | [7] 0.044 | encorafenib -0.006 | [8] 0.011 | alisertib 0.019 | [9] -0.014 | gefitinib -0.015

THOP1 (UniProt P52888)
inactive: vemurafenib -0.019 | [1] -0.001 | barasertib -0.004 | [2] 0.001 | volasertib 0.023 | [3] -0.013 | [4] -0.039 | [5] 0.044 | saracatinib -0.026 | sotrastaurin -0.012 | alvocidib 0.004 | Tubastatin A 0.021 | [6] -0.009 | defactinib -0.006 | [7] 0.004 | encorafenib -0.014 | [8] 0.02 | alisertib 0.001 | [9] 0.007 | gefitinib -0.01

TMA16 (UniProt Q96EY4)
inactive: vemurafenib -0.016 | [1] 0 | barasertib -0.047 | [2] -0.052 | volasertib 0.038 | [3] 0.036 | [4] 0.032 | [5] -0.048 | saracatinib -0.004 | sotrastaurin -0.033 | alvocidib -0.021 | Tubastatin A -0.093 | [6] -0.002 | defactinib -0.042 | [7] 0.054 | encorafenib -0.064 | [8] 0.036 | alisertib -0.008 | [9] -0.004 | gefitinib -0.062

TJAP1 (UniProt Q5JTD0)
inactive: vemurafenib 0.002 | [1] 0.018 | barasertib -0.017 | [2] 0.043 | volasertib 0.043 | [3] -0.015 | [4] -0.048 | [5] 0.13 | saracatinib -0.029 | sotrastaurin 0.002 | alvocidib -0.09 | Tubastatin A 0.036 | [6] -0.014 | defactinib -0.017 | [7] 0.008 | encorafenib -0.016 | [8] -0.143 | alisertib -0.047 | [9] -0.005 | gefitinib 0.035

TLCD4 (UniProt Q96MV1)
inactive: vemurafenib 0.017 | [1] 0.02 | barasertib -0.003 | [2] 0.008 | volasertib 0.011 | [3] 0.124 | [4] -0.166 | [5] 0.112 | saracatinib 0.045 | sotrastaurin 0.009 | alvocidib -0.097 | Tubastatin A -0.041 | [6] -0.108 | defactinib 0.075 | [7] -0.171 | encorafenib 0.035 | [8] -0.045 | alisertib -0.027 | [9] -0.006 | gefitinib -0.012

TIMM8B (UniProt Q9Y5J9)
inactive: vemurafenib -0.035 | [1] -0.028 | barasertib 0.089 | [2] -0.01 | volasertib 0.047 | [3] 0.094 | [4] 0.157 | [5] -0.133 | saracatinib -0.052 | sotrastaurin -0.04 | alvocidib 0.097 | Tubastatin A 0.038 | [6] 0.037 | defactinib 0.126 | [7] -0.009 | encorafenib -0.045 | [8] 0.037 | alisertib 0.035 | [9] -0.03 | gefitinib -0.241

TLE4 isoform 3 (UniProt Q04727)
inactive: vemurafenib -0.004 | [1] -0.025 | barasertib 0.005 | [2] 0.012 | volasertib -0.014 | [3] 0.001 | [4] -0.071 | [5] 0.05 | saracatinib 0.002 | sotrastaurin 0.034 | alvocidib -0.027 | Tubastatin A -0.019 | [6] 0.007 | defactinib 0.049 | [7] 0.01 | encorafenib 0 | [8] -0.055 | alisertib 0.037 | [9] 0.02 | gefitinib -0.038

THOC3 (UniProt Q96J01)
inactive: vemurafenib 0.003 | [1] 0.025 | barasertib 0.013 | [2] 0.01 | volasertib -0.031 | [3] 0.048 | [4] -0.029 | [5] 0.011 | saracatinib -0.027 | sotrastaurin -0.014 | alvocidib 0.002 | Tubastatin A -0.047 | [6] -0.011 | defactinib 0.038 | [7] -0.047 | encorafenib -0.044 | [8] 0.053 | alisertib -0.003 | [9] -0.002 | gefitinib -0.065

TGFBR3 (UniProt Q03167)
inactive: vemurafenib 0.08 | [1] 0.039 | barasertib -0.099 | [2] 0.112 | volasertib 0.024 | [3] -0.02 | [4] -0.065 | [5] 0.05 | saracatinib -0.034 | sotrastaurin 0.026 | alvocidib -0.039 | Tubastatin A 0.035 | [6] 0.034 | defactinib -0.03 | [7] 0.002 | encorafenib 0.007 | [8] -0.035 | alisertib 0.004 | [9] 0.022 | gefitinib 0.05

TMED5 (UniProt Q9Y3A6)
inactive: vemurafenib -0.045 | [1] -0.001 | barasertib -0.012 | [2] 0.002 | volasertib -0.01 | [3] -0.03 | [4] -0.016 | [5] 0.014 | saracatinib 0.019 | sotrastaurin -0.011 | alvocidib -0.01 | Tubastatin A 0.031 | [6] -0.033 | defactinib 0.029 | [7] 0.013 | encorafenib 0.013 | [8] -0.019 | alisertib 0.017 | [9] -0.043 | gefitinib 0.023

TMEM186 (UniProt Q96B77)
inactive: vemurafenib 0.035 | [1] 0.018 | barasertib 0.062 | [2] 0.018 | volasertib 0.029 | [3] -0.037 | [4] 0.25 | [5] -0.114 | saracatinib -0.047 | sotrastaurin -0.04 | alvocidib 0.087 | Tubastatin A 0.021 | [6] 0.002 | defactinib -0.008 | [7] 0.032 | encorafenib 0.044 | [8] -0.05 | alisertib -0.046 | [9] 0.013 | gefitinib 0.124

TMEM135 (UniProt Q86UB9)
inactive: vemurafenib 0.301 | [1] 0.026 | barasertib 0.019 | [2] -0.051 | volasertib 0.026 | [3] 0.024 | [4] 0.12 | [5] -0.118 | saracatinib -0.004 | sotrastaurin 0.023 | alvocidib 0.119 | Tubastatin A 0.008 | [6] -0.001 | defactinib 0.205 | [7] -0.156 | encorafenib 0.088 | [8] -0.038 | alisertib -0.018 | [9] 0.09 | gefitinib 0.021

TLCD1 (UniProt Q96CP7)
inactive: vemurafenib 0.042 | [1] -0.073 | barasertib 0 | [2] -0.087 | volasertib 0.086 | [3] 0.17 | [4] -0.103 | [5] -0.011 | saracatinib -0.013 | sotrastaurin 0.036 | alvocidib -0.121 | Tubastatin A 0.1 | [6] 0.013 | defactinib 0.112 | [7] 0.032 | encorafenib -0.002 | [8] -0.09 | alisertib 0.013 | [9] -0.151 | gefitinib 0.119

Taken from the entries so far (4 entries):
TLE4 isoform 3 (UniProt Q04727)
inactive: vemurafenib -0.004 | [1] -0.025 | barasertib 0.005 | [2] 0.012 | volasertib -0.014 | [3] 0.001 | [4] -0.071 | [5] 0.05 | saracatinib 0.002 | sotrastaurin 0.034 | alvocidib -0.027 | Tubastatin A -0.019 | [6] 0.007 | defactinib 0.049 | [7] 0.01 | encorafenib 0 | [8] -0.055 | alisertib 0.037 | [9] 0.02 | gefitinib -0.038

THOC3 (UniProt Q96J01)
inactive: vemurafenib 0.003 | [1] 0.025 | barasertib 0.013 | [2] 0.01 | volasertib -0.031 | [3] 0.048 | [4] -0.029 | [5] 0.011 | saracatinib -0.027 | sotrastaurin -0.014 | alvocidib 0.002 | Tubastatin A -0.047 | [6] -0.011 | defactinib 0.038 | [7] -0.047 | encorafenib -0.044 | [8] 0.053 | alisertib -0.003 | [9] -0.002 | gefitinib -0.065

TGFBR3 (UniProt Q03167)
inactive: vemurafenib 0.08 | [1] 0.039 | barasertib -0.099 | [2] 0.112 | volasertib 0.024 | [3] -0.02 | [4] -0.065 | [5] 0.05 | saracatinib -0.034 | sotrastaurin 0.026 | alvocidib -0.039 | Tubastatin A 0.035 | [6] 0.034 | defactinib -0.03 | [7] 0.002 | encorafenib 0.007 | [8] -0.035 | alisertib 0.004 | [9] 0.022 | gefitinib 0.05

TMED5 (UniProt Q9Y3A6)
inactive: vemurafenib -0.045 | [1] -0.001 | barasertib -0.012 | [2] 0.002 | volasertib -0.01 | [3] -0.03 | [4] -0.016 | [5] 0.014 | saracatinib 0.019 | sotrastaurin -0.011 | alvocidib -0.01 | Tubastatin A 0.031 | [6] -0.033 | defactinib 0.029 | [7] 0.013 | encorafenib 0.013 | [8] -0.019 | alisertib 0.017 | [9] -0.043 | gefitinib 0.023
